No constants are given. Whether binding was seen depends on the method and setting. In cells and extracts the contact can be indirect. A yes stands for co-enrichment or nearness to the bait. Other partners may have been found. Sequences can lack the tags named with a protein.
T1: EGFP–ARS2 wt (human) (UniProt Q9BXP5)
T1 sequence: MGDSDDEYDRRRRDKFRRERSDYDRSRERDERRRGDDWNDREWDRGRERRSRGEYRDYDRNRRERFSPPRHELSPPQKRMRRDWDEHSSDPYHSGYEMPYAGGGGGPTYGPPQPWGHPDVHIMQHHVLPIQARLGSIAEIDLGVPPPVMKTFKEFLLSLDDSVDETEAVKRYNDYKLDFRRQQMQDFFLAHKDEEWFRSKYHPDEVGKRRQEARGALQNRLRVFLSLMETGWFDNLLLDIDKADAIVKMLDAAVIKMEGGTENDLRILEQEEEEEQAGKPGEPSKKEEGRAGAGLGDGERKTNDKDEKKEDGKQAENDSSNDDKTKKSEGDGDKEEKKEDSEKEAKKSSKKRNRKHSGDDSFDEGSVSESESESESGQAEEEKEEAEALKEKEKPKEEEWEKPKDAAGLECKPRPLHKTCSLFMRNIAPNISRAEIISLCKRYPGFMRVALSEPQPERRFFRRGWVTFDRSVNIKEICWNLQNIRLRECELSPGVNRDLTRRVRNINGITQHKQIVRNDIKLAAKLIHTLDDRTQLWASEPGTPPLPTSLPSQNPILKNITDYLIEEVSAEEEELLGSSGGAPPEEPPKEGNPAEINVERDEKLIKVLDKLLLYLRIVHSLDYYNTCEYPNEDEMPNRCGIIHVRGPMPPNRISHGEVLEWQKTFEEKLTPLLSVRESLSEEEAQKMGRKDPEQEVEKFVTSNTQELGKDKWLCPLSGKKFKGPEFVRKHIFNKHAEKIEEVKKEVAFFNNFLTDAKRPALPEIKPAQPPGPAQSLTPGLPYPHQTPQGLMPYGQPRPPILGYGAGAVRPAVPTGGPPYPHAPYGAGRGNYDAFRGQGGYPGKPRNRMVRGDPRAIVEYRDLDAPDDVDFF


target: T1, EGFP–ARS2 wt (human); assay: affinity purification with mass spectrometry; EGFP-tagged ARS2 constructs expressed in HEK 293T/17, lysis in 20 mM HEPES pH 7.4, 120 mM NaCl, 0.1% Triton X-100 with RNase H, GFP-Trap beads, TMT labelling, LC–MS/MS; controls EGFP and pcDNA3.1

binding | Binder
binds | THOC6 (protein, UniProt Q86W42 1-341) MERAVPLAVPLGQTEVFQALQRLHMTIFSQSVSPCGKFLAAGNNYGQIAIFSLSSALSSEAKEESKKPVVTFQAHDGPVYSMVSTDRHLLSAGDGEVKAWLWAEMLKKGCKELWRRQPPYRTSLEVPEINALLLVPKENSLILAGGDCQLHTMDLETGTFTRVLRGHTDYIHCLALRERSPEVLSGGEDGAVRLWDLRTAKEVQTIEVYKHEECSRPHNGRWIGCLATDSDWMVCGGGPALTLWHLRSSTPTTIFPIRAPQKHVTFYQDLILSAGQGRCVNQWQLSGELKAQVPGSSPGLLSLSLNQQPAAPECKVLTAAGNSCRVDVFTNLGYRAFSLSF
binds | THOC5 (protein, UniProt Q13769 1-683) MSSESSKKRKPKVIRSDGAPAEGKRNRSDTEQEGKYYSEEAEVDLRDPGRDYELYKYTCQELQRLMAEIQDLKSRGGKDVAIEIEERRIQSCVHFMTLKKLNRLAHIRLKKGRDQTHEAKQKVDAYHLQLQNLLYEVMHLQKEITKCLEFKSKHEEIDLVSLEEFYKEAPPDISKAEVTMGDPHQQTLARLDWELEQRKRLAEKYRECLSNKEKILKEIEVKKEYLSSLQPRLNSIMQASLPVQEYLFMPFDQAHKQYETARHLPPPLYVLFVQATAYGQACDKTLSVAIEGSVDEAKALFKPPEDSQDDESDSDAEEEQTTKRRRPTLGVQLDDKRKEMLKRHPLSVMLDLKCKDDSVLHLTFYYLMNLNIMTVKAKVTTAMELITPISAGDLLSPDSVLSCLYPGDHGKKTPNPANQYQFDKVGILTLSDYVLELGHPYLWVQKLGGLHFPKEQPQQTVIADHSLSASHMETTMKLLKTRVQSRLALHKQFASLEHGIVPVTSDCQYLFPAKVVSRLVKWVTVAHEDYMELHFTKDIVDAGLAGDTNLYYMALIERGTAKLQAAVVLNPGYSSIPPVFQLCLNWKGEKTNSNDDNIRAMEGEVNVCYKELCGPWPSHQLLTNQLQRLCVLLDVYLETESHDDSVEGPKEFPQEKMCLRLFRGPSRMKPFKYNHPQGFFSHR
binds | NCBP3 (endogenous) (protein, UniProt Q53F19 1-620) MAAVRGLRVSVKAEAPAGPALGLPSPEAESGVDRGEPEPMEVEEGELEIVPVRRSLKELIPDTSRRYENKAGSFITGIDVTSKEAIEKKEQRAKRFHFRSEVNLAQRNVALDRDMMKKAIPKVRLETIYICGVDEMSTQDVFSYFKEYPPAHIEWLDDTSCNVVWLDEMTATRALINMSSLPAQDKIRSRDASEDKSAEKRKKDKQEDSSDDDEAEEGEVEDENSSDVELDTLSQVEEESLLRNDLRPANKLAKGNRLFMRFATKDDKKELGAARRSQYYMKYGNPNYGGMKGILSNSWKRRYHSRRIQRDVIKKRALIGDDVGLTSYKHRHSGLVNVPEEPIEEEEEEEEEEEEEEEEDQDMDADDRVVVEYHEELPALKQPRERSASRRSSASSSDSDEMDYDLELKMISTPSPKKSMKMTMYADEVESQLKNIRNSMRADSVSSSNIKNRIGNKLPPEKFADVRHLLDEKRQHSRPRPPVSSTKSDIRQRLGKRPHSPEKAFSSNPVVRREPSSDVHSRLGVPRQDSKGLYADTREKKSGNLWTRLGSAPKTKEKNTKKVDHRAPGAEEDDSELQRAWGALIKEKEQSRQKKSRLDNLPSLQIEVSRESSSGSEAES
binds | THOC3 (protein, UniProt Q96J01 1-351) MAVPAAAMGPSALGQSGPGSMAPWCSVSSGPSRYVLGMQELFRGHSKTREFLAHSAKVHSVAWSCDGRRLASGSFDKTASVFLLEKDRLVKENNYRGHGDSVDQLCWHPSNPDLFVTASGDKTIRIWDVRTTKCIATVNTKGENINICWSPDGQTIAVGNKDDVVTFIDAKTHRSKAEEQFKFEVNEISWNNDNNMFFLTNGNGCINILSYPELKPVQSINAHPSNCICIKFDPMGKYFATGSADALVSLWDVDELVCVRCFSRLDWPVRTLSFSHDGKMLASASEDHFIDIAEVETGDKLWEVQCESPTFTVAWHPKRPLLAFACDDKDGKYDSSREAGTVKLFGLPNDS
binds | THOC1 (protein, UniProt Q96FV9 1-657) MSPTPPLFSLPEARTRFTKSTREALNNKNIKPLLSTFSQVPGSENEKKCTLDQAFRGILEEEIINHSSCENVLAIISLAIGGVTEGICTASTPFVLLGDVLDCLPLDQCDTIFTFVEKNVATWKSNTFYSAGKNYLLRMCNDLLRRLSKSQNTVFCGRIQLFLARLFPLSEKSGLNLQSQFNLENVTVFNTNEQESTLGQKHTEDREEGMDVEEGEMGDEEAPTTCSIPIDYNLYRKFWSLQDYFRNPVQCYEKISWKTFLKYSEEVLAVFKSYKLDDTQASRKKMEELKTGGEHVYFAKFLTSEKLMDLQLSDSNFRRHILLQYLILFQYLKGQVKFKSSNYVLTDEQSLWIEDTTKSVYQLLSENPPDGERFSKMVEHILNTEENWNSWKNEGCPSFVKERTSDTKPTRIIRKRTAPEDFLGKGPTKKILMGNEELTRLWNLCPDNMEACKSETREHMPTLEEFFEEAIEQADPENMVENEYKAVNNSNYGWRALRLLARRSPHFFQPTNQQFKSLPEYLENMVIKLAKELPPPSEEIKTGEDEDEEDNDALLKENESPDVRRDKPVTGEQIEVFANKLGEQWKILAPYLEMKDSEIRQIECDSEDMKMRAKQLLVAWQDQEGVHATPENLINALNKSGLSDLAESLTNDNETNS

More lines, now with the values behind:

Binder | binding
CPSF2 (protein, UniProt Q9P2I0 1-782) MTSIIKLTTLSGVQEESALCYLLQVDEFRFLLDCGWDEHFSMDIIDSLRKHVHQIDAVLLSHPDPLHLGALPYAVGKLGLNCAIYATIPVYKMGQMFMYDLYQSRHNTEDFTLFTLDDVDAAFDKIQQLKFSQIVNLKGKGHGLSITPLPAGHMIGGTIWKIVKDGEEEIVYAVDFNHKREIHLNGCSLEMLSRPSLLITDSFNATYVQPRRKQRDEQLLTNVLETLRGDGNVLIAVDTAGRVLELAQLLDQIWRTKDAGLGVYSLALLNNVSYNVVEFSKSQVEWMSDKLMRCFEDKRNNPFQFRHLSLCHGLSDLARVPSPKVVLASQPDLECGFSRDLFIQWCQDPKNSIILTYRTTPGTLARFLIDNPSEKITEIELRKRVKLEGKELEEYLEKEKLKKEAAKKLEQSKEADIDSSDESDIEEDIDQPSAHKTKHDLMMKGEGSRKGSFFKQAKKSYPMFPAPEERIKWDEYGEIIKPEDFLVPELQATEEEKSKLESGLTNGDEPMDQDLSDVPTKCISTTESIEIKARVTYIDYEGRSDGDSIKKIINQMKPRQLIIVHGPPEASQDLAECCRAFGGKDIKVYMPKLHETVDATSETHIYQVRLKDSLVSSLQFCKAKDAELAWIDGVLDMRVSKVDTGVILEEGELKDDGEDSEMQVEAPSDSSVIAQQKAMKSLFGDDEKETGEESEIIPTLEPLPPHEVPGHQSVFMNEPRLSDFKQVLLREGIQAEFVGGVLVCNNQVAVRRTETGRIGLEGCLCQDFYRIRDLLYEQYAIV | binds
CPSF3 (protein, UniProt Q9UKF6 1-684) MSAIPAEESDQLLIRPLGAGQEVGRSCIILEFKGRKIMLDCGIHPGLEGMDALPYIDLIDPAEIDLLLISHFHLDHCGALPWFLQKTSFKGRTFMTHATKAIYRWLLSDYVKVSNISADDMLYTETDLEESMDKIETINFHEVKEVAGIKFWCYHAGHVLGAAMFMIEIAGVKLLYTGDFSRQEDRHLMAAEIPNIKPDILIIESTYGTHIHEKREEREARFCNTVHDIVNRGGRGLIPVFALGRAQELLLILDEYWQNHPELHDIPIYYASSLAKKCMAVYQTYVNAMNDKIRKQININNPFVFKHISNLKSMDHFDDIGPSVVMASPGMMQSGLSRELFESWCTDKRNGVIIAGYCVEGTLAKHIMSEPEEITTMSGQKLPLKMSVDYISFSAHTDYQQTSEFIRALKPPHVILVHGEQNEMARLKAALIREYEDNDEVHIEVHNPRNTEAVTLNFRGEKLAKVMGFLADKKPEQGQRVSGILVKRNFNYHILSPCDLSNYTDLAMSTVKQTQAIPYTGPFNLLCYQLQKLTGDVEELEIQEKPALKVFKNITVIQEPGMVVLEWLANPSNDMYADTVTTVILEVQSNPKIRKGAVQKVSKKLEMHVYSKRLEIMLQDIFGEDCVSVKDDSILSVTVDGKTANLNLETRTVECEEGSEDDESLREMVELAAQRLYEALTPVH | binds
CPSF7 (protein, UniProt Q8N684 1-471) MSEGVDLIDIYADEEFNQDPEFNNTDQIDLYDDVLTATSQPSDDRSSSTEPPPPVRQEPSPKPNNKTPAILYTYSGLRNRRAAVYVGSFSWWTTDQQLIQVIRSIGVYDVVELKFAENRANGQSKGYAEVVVASENSVHKLLELLPGKVLNGEKVDVRPATRQNLSQFEAQARKRECVRVPRGGIPPRAHSRDSSDSADGRATPSENLVPSSARVDKPPSVLPYFNRPPSALPLMGLPPPPIPPPPPLSSSFGVPPPPPGIHYQHLMPPPPRLPPHLAVPPPGAIPPALHLNPAFFPPPNATVGPPPDTYMKASAPYNHHGSRDSGPPPSTVSEAEFEDIMKRNRAISSSAISKAVSGASAGDYSDAIETLLTAIAVIKQSRVANDERCRVLISSLKDCLHGIEAKSYSVGASGSSSRKRHRSRERSPSRSRESSRRHRDLLHNEDRHDDYFQERNREHERHRDRERDRHH | binds

— paper PMC5923425, “Structural analysis of human ARS2 as a platform for co-transcriptional RNA sorting” (Nature Communications, 2018)
